Results from the supplement of paper PMC10849652.
The other results are listed elsewhere or left out.

Chains of the proteins cited; added tags and fusions are not shown. Lines headed by an entry give the natural chain unless they say otherwise; changes in a name come on top.
UniProt Q9NPL8: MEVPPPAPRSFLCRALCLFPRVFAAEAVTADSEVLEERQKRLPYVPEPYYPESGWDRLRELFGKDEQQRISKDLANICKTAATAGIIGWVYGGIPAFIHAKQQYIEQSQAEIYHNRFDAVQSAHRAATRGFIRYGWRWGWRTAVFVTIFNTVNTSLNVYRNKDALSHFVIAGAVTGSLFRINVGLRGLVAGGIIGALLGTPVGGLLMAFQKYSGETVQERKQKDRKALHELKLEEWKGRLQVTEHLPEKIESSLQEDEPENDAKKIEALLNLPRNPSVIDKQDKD
UniProt Q8WVM0: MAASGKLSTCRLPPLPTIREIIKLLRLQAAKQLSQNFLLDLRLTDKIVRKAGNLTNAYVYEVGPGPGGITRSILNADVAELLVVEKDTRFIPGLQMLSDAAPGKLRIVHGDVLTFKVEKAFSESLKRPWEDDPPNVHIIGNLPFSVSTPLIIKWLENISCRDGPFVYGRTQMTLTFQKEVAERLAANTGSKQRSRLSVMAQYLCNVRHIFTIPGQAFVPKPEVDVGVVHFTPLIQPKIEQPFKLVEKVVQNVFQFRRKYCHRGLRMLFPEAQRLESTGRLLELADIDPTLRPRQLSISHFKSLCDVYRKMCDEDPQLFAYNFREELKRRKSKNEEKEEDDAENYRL
UniProt P35443: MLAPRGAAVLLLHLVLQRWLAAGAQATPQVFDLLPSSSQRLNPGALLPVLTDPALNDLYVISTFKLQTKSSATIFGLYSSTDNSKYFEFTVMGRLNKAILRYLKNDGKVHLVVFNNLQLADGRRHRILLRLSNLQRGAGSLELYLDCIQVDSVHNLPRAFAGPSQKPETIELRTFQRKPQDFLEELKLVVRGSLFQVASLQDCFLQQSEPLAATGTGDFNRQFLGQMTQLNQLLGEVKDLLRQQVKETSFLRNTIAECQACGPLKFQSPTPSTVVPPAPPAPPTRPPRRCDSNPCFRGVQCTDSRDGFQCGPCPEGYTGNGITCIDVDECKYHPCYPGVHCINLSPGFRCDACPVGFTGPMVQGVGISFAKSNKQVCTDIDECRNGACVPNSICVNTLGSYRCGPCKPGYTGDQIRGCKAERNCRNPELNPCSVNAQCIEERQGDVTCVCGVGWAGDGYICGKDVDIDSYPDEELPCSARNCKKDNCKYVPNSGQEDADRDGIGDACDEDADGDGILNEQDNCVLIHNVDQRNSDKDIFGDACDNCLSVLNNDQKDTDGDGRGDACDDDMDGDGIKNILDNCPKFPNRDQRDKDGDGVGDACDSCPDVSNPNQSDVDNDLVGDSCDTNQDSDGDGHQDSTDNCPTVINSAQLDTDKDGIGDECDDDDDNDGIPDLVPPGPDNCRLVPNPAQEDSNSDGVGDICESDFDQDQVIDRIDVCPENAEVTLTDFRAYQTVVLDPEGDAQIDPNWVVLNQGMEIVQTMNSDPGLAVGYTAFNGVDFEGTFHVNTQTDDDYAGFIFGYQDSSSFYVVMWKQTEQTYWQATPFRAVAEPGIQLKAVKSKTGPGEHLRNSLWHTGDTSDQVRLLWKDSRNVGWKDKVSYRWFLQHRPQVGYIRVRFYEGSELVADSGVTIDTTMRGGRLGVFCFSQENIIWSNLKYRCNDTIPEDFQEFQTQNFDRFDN
UniProt Q92734, whole entry, looked up: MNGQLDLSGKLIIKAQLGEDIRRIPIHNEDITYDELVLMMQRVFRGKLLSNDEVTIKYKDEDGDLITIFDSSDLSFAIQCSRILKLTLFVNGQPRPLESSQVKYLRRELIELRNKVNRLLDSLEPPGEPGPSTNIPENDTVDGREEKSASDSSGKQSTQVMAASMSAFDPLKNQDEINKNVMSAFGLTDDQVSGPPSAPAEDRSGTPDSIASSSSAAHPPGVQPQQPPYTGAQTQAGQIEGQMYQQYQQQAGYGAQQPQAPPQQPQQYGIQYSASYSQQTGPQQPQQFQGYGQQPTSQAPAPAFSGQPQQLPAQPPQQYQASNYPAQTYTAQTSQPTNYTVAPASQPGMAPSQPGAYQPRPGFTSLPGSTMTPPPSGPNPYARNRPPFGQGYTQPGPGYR
UniProt Q969Z0: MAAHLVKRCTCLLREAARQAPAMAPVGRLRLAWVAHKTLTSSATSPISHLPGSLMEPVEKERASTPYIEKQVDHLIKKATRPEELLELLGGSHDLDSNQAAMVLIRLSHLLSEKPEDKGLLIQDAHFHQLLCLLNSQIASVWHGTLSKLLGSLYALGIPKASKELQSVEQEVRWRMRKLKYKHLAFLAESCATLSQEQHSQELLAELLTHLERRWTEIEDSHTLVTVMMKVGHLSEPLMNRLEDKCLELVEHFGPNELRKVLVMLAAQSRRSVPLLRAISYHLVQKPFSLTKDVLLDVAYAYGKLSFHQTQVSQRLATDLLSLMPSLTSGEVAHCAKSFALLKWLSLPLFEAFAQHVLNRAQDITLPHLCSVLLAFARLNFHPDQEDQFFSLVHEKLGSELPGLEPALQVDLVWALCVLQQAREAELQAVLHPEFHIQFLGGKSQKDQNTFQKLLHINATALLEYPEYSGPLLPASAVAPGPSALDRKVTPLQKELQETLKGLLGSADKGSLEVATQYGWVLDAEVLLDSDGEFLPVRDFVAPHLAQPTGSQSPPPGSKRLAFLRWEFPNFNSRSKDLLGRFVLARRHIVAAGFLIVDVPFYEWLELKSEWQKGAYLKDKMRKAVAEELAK
UniProt Q15554: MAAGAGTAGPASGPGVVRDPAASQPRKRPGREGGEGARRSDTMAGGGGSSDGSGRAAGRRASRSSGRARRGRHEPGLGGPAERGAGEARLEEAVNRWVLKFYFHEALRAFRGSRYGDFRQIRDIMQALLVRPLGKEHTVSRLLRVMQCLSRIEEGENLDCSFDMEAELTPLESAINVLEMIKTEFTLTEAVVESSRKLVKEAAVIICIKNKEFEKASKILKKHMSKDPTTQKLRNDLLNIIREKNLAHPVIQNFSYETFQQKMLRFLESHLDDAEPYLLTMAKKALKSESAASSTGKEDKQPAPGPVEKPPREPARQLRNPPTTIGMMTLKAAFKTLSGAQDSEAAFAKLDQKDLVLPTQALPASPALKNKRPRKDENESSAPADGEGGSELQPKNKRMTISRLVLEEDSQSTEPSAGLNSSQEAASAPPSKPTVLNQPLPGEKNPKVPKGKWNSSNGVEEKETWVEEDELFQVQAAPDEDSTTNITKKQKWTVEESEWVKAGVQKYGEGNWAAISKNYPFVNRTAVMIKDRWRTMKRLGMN
UniProt Q6YHU6: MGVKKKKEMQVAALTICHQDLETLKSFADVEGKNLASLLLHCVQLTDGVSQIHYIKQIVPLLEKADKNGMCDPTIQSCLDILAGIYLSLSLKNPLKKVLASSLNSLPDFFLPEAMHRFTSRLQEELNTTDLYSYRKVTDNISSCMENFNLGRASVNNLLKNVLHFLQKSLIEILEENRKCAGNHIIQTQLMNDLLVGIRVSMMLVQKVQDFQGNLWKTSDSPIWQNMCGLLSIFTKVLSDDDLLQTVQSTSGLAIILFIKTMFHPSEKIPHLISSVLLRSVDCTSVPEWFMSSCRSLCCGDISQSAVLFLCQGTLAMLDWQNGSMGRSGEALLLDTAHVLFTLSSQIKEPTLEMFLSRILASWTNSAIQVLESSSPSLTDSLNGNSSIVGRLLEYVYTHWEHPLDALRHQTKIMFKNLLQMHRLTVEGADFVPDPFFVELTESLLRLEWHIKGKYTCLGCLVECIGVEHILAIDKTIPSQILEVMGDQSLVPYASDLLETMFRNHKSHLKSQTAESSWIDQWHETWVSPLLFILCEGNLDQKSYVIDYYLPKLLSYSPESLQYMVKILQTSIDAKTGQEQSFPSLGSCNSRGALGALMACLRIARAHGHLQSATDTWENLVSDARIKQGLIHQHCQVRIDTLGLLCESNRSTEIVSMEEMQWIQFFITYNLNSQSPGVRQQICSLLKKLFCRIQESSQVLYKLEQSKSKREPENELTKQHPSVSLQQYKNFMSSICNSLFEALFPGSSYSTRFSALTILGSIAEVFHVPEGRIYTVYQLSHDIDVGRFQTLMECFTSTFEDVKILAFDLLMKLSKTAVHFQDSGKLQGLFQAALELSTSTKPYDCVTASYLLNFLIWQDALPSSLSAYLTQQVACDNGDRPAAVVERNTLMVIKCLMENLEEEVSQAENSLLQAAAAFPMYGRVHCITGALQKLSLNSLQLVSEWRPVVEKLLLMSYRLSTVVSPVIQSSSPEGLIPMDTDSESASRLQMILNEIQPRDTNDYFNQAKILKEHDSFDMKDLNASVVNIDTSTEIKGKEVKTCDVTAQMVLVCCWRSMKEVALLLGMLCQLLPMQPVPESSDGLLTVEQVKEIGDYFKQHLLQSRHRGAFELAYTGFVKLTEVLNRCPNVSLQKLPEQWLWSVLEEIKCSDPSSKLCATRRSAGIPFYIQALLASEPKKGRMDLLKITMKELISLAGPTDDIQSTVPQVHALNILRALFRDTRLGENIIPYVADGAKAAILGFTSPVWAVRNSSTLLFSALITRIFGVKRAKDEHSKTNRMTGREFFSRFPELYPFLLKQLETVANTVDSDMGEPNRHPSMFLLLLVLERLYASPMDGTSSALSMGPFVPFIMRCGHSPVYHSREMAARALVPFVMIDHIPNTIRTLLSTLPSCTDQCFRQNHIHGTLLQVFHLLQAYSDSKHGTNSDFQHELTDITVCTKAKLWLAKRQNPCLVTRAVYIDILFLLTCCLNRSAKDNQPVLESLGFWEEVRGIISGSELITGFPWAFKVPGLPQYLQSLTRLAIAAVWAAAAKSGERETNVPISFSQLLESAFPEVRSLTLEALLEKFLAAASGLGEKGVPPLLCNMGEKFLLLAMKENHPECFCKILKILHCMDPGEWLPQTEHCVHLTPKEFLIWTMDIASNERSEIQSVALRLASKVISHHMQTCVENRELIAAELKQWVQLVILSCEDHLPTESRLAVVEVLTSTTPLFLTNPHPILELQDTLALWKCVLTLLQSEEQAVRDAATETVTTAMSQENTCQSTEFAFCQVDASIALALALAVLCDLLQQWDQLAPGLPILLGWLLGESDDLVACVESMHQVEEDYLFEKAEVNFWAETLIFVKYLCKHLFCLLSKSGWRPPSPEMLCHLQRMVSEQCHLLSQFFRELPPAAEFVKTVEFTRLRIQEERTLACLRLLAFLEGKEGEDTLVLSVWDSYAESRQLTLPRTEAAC
UniProt Q9Y6I9: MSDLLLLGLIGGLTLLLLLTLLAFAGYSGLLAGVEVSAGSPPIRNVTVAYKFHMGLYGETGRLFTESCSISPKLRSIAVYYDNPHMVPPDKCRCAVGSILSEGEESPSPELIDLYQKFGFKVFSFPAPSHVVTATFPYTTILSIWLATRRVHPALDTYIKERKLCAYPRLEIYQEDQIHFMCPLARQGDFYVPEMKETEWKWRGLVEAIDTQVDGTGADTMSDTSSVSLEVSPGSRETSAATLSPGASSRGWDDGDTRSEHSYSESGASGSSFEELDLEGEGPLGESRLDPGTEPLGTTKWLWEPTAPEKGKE
UniProt Q6I9Y2: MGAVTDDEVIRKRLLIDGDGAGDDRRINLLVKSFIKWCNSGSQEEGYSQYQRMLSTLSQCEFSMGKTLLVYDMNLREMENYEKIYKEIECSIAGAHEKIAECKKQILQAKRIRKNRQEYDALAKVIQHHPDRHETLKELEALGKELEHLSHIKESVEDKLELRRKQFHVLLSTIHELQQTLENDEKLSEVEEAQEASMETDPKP
UniProt P17987, whole entry, looked up: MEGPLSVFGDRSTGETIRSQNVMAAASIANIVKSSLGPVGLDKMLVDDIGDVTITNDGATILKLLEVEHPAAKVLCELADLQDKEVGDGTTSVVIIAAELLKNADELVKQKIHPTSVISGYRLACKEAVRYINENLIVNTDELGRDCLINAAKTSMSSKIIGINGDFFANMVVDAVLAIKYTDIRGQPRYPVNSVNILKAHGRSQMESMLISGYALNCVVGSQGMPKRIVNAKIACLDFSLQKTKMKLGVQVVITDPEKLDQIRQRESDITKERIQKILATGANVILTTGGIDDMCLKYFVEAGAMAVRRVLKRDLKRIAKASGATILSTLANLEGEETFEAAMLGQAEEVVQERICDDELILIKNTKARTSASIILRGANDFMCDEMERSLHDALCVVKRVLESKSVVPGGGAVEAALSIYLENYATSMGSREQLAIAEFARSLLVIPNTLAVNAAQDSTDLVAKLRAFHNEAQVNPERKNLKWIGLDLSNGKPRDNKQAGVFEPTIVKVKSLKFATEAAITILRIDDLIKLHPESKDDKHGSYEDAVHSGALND
UniProt Q9Y584: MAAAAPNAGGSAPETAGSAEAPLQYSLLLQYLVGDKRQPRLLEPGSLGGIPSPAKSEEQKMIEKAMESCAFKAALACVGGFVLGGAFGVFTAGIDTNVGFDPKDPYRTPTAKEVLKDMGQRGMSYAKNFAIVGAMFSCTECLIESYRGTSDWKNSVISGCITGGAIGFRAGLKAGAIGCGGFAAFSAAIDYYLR
UniProt P01033: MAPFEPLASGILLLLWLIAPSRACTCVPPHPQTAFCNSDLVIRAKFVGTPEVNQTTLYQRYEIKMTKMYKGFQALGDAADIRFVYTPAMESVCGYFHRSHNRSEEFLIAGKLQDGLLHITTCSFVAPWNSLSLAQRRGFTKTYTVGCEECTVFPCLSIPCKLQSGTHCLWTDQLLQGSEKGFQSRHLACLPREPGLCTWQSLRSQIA

Key:
Assay in all cases: log2 fold change, soluble protein after heating vs DMSO (PISA); higher = thermal stabilisation; K562 cells, 10 uM, 30 min; active = over 0.2 and 3.5 SD of the protein, either way, in both replicates (recomputed)
[1] = compound: COC1=CC=C(C=C1)CN2C=CC3=C2C=C(C=C3)C(=O)NO
In short: (§1)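 K562 cells (2×10^6 cells/mL) were treated with 10 μM compound for 30 min, and aliquots were heated for 3 min over 48°C-58°C. Pooled aliquots were extracted in PBS with 0.5% NP-40 at 4°C, and the supernatant after 21,000xg for 90 min was measured by TMTpro 16plex LC-MS/MS with channel sums equalised. Reported thermal stability, relative to control samples and from duplicates, is a log2 fold change.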

filanesib = compound: CON(C)C(=O)N1N=C(c2cc(F)ccc2F)S[C@@]1(CCCN)c1ccccc1 [filanesib]
In short: as §1

zotarolimus = compound: CO[C@H]1C[C@@H]2CC[C@@H](C)[C@@](O)(O2)C(=O)C(=O)N2CCCC[C@H]2C(=O)O[C@H]([C@H](C)C[C@@H]2CC[C@H](n3cnnn3)[C@H](OC)C2)CC(=O)[C@H](C)/C=C(\C)[C@@H](O)[C@@H](OC)C(=O)[C@H](C)C[C@H](C)/C=C/C=C/C=C/1C [zotarolimus]
In short: as §1

idasanutlin = compound: COc1cc(C(=O)O)ccc1NC(=O)[C@@H]1N[C@@H](CC(C)(C)C)[C@](C#N)(c2ccc(Cl)cc2F)[C@H]1c1cccc(Cl)c1F [idasanutlin]
In short: as §1

alisertib = compound: COc1cc(Nc2ncc3c(n2)-c2ccc(Cl)cc2C(c2c(F)cccc2OC)=NC3)ccc1C(=O)O [alisertib]
In short: as §1

[2] = compound: COc1cc2nc(-c3cc(F)ccc3O)nc(N[C@@H]3CNC[C@H]3C(C)(C)O)c2cc1OC
In short: as §1

gefitinib = compound: COc1cc2ncnc(Nc3ccc(F)c(Cl)c3)c2cc1OCCCN1CCOCC1 [gefitinib]
In short: as §1

[3] = compound: COc1cccc2cc(-c3nc([C@H]4CC[C@H](C(=O)O)CC4)n4ncnc(N)c34)[nH]c12
In short: as §1

lapatinib = compound: CS(=O)(=O)CCNCc1ccc(-c2ccc3ncnc(Nc4ccc(OCc5cccc(F)c5)c(Cl)c4)c3c2)o1 [lapatinib]
In short: as §1

pictilisib = compound: CS(=O)(=O)N1CCN(Cc2cc3nc(-c4cccc5[nH]ncc45)nc(N4CCOCC4)c3s2)CC1 [pictilisib]
In short: as §1

Measured: log2 fold change

TGFBRAP1 (UniProt Q8WUH2)
inactive: [1] 0.092 | filanesib -0.006 | zotarolimus -0.031 | idasanutlin -0.137 | alisertib 0.046 | [2] 0.092 | gefitinib 0.047 | [3] -0.103 | lapatinib -0.098 | pictilisib -0.136

TGS1 (UniProt Q96RS0)
inactive: [1] -0.074 | filanesib -0.064 | zotarolimus 0.123 | idasanutlin -0.005 | alisertib -0.108 | [2] -0.006 | gefitinib 0.082 | [3] -0.037 | lapatinib 0.061

TIMMDC1 (UniProt Q9NPL8)
inactive: [1] 0.075 | filanesib -0.056 | zotarolimus -0.065 | idasanutlin -0.008 | alisertib -0.03 | [2] -0.014 | gefitinib 0.008 | [3] 0.01 | lapatinib -0.022 | pictilisib 0.017

TBK1 (UniProt Q9UHD2)
inactive: [1] -0.06 | filanesib 0.05 | zotarolimus -0.037 | idasanutlin 0.046 | alisertib 0.064 | [2] 0.087 | gefitinib -0.098 | [3] 0.08 | lapatinib -0.018 | pictilisib 0.009

TFB1M (UniProt Q8WVM0)
inactive: [1] -0.087 | filanesib 0.198 | zotarolimus 0.053 | idasanutlin 0.138 | alisertib -0.116 | [2] 0.107 | gefitinib -0.011 | [3] -0.112 | lapatinib 0.184 | pictilisib -0.015

TGOLN2 isoform 7 (UniProt O43493)
inactive: [1] 0 | filanesib -0.174 | zotarolimus -0.017 | idasanutlin 0.031 | alisertib -0.04 | [2] -0.043 | gefitinib 0.054 | [3] 0.073 | lapatinib -0.017 | pictilisib -0.006

TCEA1 (UniProt P23193)
inactive: [1] 0.152 | filanesib -0.036 | zotarolimus 0.008 | idasanutlin 0.021 | alisertib -0.034 | [2] -0.018 | gefitinib -0.01 | [3] -0.011 | lapatinib -0.02 | pictilisib 0.013

TERF2IP (UniProt Q9NYB0)
inactive: [1] -0.034 | filanesib 0.052 | zotarolimus 0.045 | idasanutlin 0.025 | alisertib -0.032 | [2] -0.119 | gefitinib 0.013 | [3] 0.025 | lapatinib -0.008 | pictilisib -0.036

THOC6 (UniProt Q86W42)
inactive: [1] -0.025 | filanesib -0.005 | zotarolimus -0.023 | idasanutlin -0.009 | alisertib -0.111 | [2] 0.041 | gefitinib 0.022 | [3] 0.003 | lapatinib -0.033 | pictilisib -0.011

THBS4 (UniProt P35443)
inactive: [1] -0.06 | filanesib 0.115 | zotarolimus -0.375 | idasanutlin 0.005 | alisertib -0.003 | [2] -0.081 | gefitinib -0.081 | [3] 0.265 | lapatinib -0.055 | pictilisib -0.25

TCF12 isoform 3 (UniProt Q99081)
inactive: [1] 0.108 | filanesib -0.044 | zotarolimus 0.022 | idasanutlin -0.191 | alisertib -0.043 | [2] -0.034 | gefitinib -0.011 | [3] 0.038 | lapatinib 0.015 | pictilisib 0.014

THYN1 (UniProt Q9P016)
inactive: [1] -0.01 | filanesib -0.009 | zotarolimus 0.015 | idasanutlin -0.011 | alisertib -0.065 | [2] 0.035 | gefitinib 0.028 | [3] -0.007 | lapatinib -0.039 | pictilisib -0.032

THUMPD2 (UniProt Q9BTF0)
inactive: [1] 0 | filanesib 0.05 | zotarolimus -0.042 | idasanutlin 0.043 | alisertib -0.024 | [2] 0.006 | gefitinib -0.067 | [3] 0.006 | lapatinib -0.016 | pictilisib -0.021

TBL1X (UniProt O60907)
inactive: [1] -0.026 | filanesib -0.013 | zotarolimus 0.047 | idasanutlin -0.006 | alisertib -0.021 | [2] 0.044 | gefitinib 0.001 | [3] 0.08 | lapatinib -0.005 | pictilisib 0.039

Reprinted at random: 2 records from the list.
TBK1 (UniProt Q9UHD2)
inactive: [1] -0.06 | filanesib 0.05 | zotarolimus -0.037 | idasanutlin 0.046 | alisertib 0.064 | [2] 0.087 | gefitinib -0.098 | [3] 0.08 | lapatinib -0.018 | pictilisib 0.009

THUMPD2 (UniProt Q9BTF0)
inactive: [1] 0 | filanesib 0.05 | zotarolimus -0.042 | idasanutlin 0.043 | alisertib -0.024 | [2] 0.006 | gefitinib -0.067 | [3] 0.006 | lapatinib -0.016 | pictilisib -0.021

(listing goes on)

TFG (UniProt Q92734)
inactive: [1] -0.044 | filanesib 0.001 | zotarolimus -0.032 | idasanutlin -0.013 | alisertib -0.029 | [2] -0.034 | gefitinib -0.012 | [3] 0.067 | lapatinib -0.006 | pictilisib -0.062

TIMM8A (UniProt O60220)
inactive: [1] -0.124 | filanesib 0.055 | zotarolimus 0.103 | idasanutlin -0.026 | alisertib -0.074 | [2] -0.085 | gefitinib -0.015 | [3] 0 | lapatinib -0.063 | pictilisib 0.032

TJAP1 (UniProt Q5JTD0)
inactive: [1] -0.059 | filanesib 0.193 | zotarolimus -0.026 | idasanutlin -0.004 | alisertib -0.018 | [2] 0.126 | gefitinib 0.028 | [3] 0.036 | lapatinib 0.182 | pictilisib 0.07

TIMM50 isoform 2 (UniProt Q3ZCQ8)
inactive: [1] -0.008 | filanesib 0.023 | zotarolimus -0.014 | idasanutlin -0.029 | alisertib -0.084 | [2] 0.13 | gefitinib 0.029 | [3] 0.021 | lapatinib 0.002 | pictilisib 0.087

TBRG4 (UniProt Q969Z0)
inactive: [1] 0.062 | filanesib -0.551 | zotarolimus -0.007 | idasanutlin -0.021 | alisertib 0.032 | [2] -0.274 | gefitinib -0.121 | [3] 0.073 | lapatinib -0.051 | pictilisib -0.036

TERF2 (UniProt Q15554)
inactive: [1] 0.042 | filanesib 0.147 | zotarolimus 0.113 | idasanutlin 0.05 | alisertib 0.01 | [2] -0.015 | gefitinib 0.078 | [3] -0.257 | lapatinib 0.019 | pictilisib -0.043

TLCD1 (UniProt Q96CP7)
inactive: [1] -0.067 | filanesib -0.173 | zotarolimus 0.014 | idasanutlin -0.034 | alisertib -0.052 | [2] 0.058 | gefitinib 0.036 | [3] 0.031 | lapatinib 0.061 | pictilisib 0.023

TLE3 isoform 4 (UniProt Q04726)
inactive: [1] 0.027 | filanesib -0.08 | zotarolimus -0.011 | idasanutlin -0.014 | alisertib -0.048 | [2] -0.039 | gefitinib -0.005 | [3] -0.049 | lapatinib 0.022 | pictilisib -0.033

THADA (UniProt Q6YHU6)
inactive: [1] 0.019 | filanesib -0.18 | zotarolimus -0.008 | idasanutlin -0.081 | alisertib -0.022 | [2] -0.03 | gefitinib -0.031 | [3] 0.014 | lapatinib 0.012 | pictilisib -0.014

TEX264 (UniProt Q9Y6I9)
inactive: [1] 0.07 | filanesib -0.169 | zotarolimus 0.059 | idasanutlin -0.076 | alisertib -0.042 | [2] 0.163 | gefitinib 0.164 | [3] -0.046 | lapatinib 0.421 | pictilisib 0.321

THOC7 (UniProt Q6I9Y2)
inactive: [1] -0.025 | filanesib 0.119 | zotarolimus 0.049 | idasanutlin 0.06 | alisertib -0.05 | [2] 0.025 | gefitinib 0.013 | [3] -0.038 | lapatinib -0.003 | pictilisib -0.047

TIMM17B (UniProt O60830)
inactive: [1] -0.074 | filanesib -0.025 | zotarolimus -0.004 | idasanutlin 0.08 | alisertib -0.014 | [2] -0.086 | gefitinib 0 | [3] 0.072 | lapatinib 0.051 | pictilisib -0.052

TBC1D23 (UniProt Q9NUY8)
inactive: [1] 0.07 | filanesib -0.184 | zotarolimus -0.002 | idasanutlin 0.068 | alisertib 0.023 | [2] -0.19 | gefitinib -0.058 | [3] 0.021 | lapatinib -0.053 | pictilisib -0.067

TCP1 (UniProt P17987)
inactive: [1] 0.003 | filanesib -0.017 | zotarolimus 0.006 | idasanutlin -0.031 | alisertib -0.062 | [2] 0.014 | gefitinib -0.021 | [3] 0.02 | lapatinib -0.009 | pictilisib 0.005

TIMM22 (UniProt Q9Y584)
inactive: [1] 0.069 | filanesib -0.039 | zotarolimus 0.055 | idasanutlin -0.03 | alisertib 0.007 | [2] 0.015 | gefitinib 0.009 | [3] 0.012 | lapatinib 0.023 | pictilisib -0.013

TIMP1 (UniProt P01033)
inactive: [1] -0.062 | filanesib 0.121 | zotarolimus -0.041 | idasanutlin -0.032 | alisertib -0.071 | [2] -0.044 | gefitinib 0.084 | [3] 0.004 | lapatinib 0.053 | pictilisib 0.087
